In PMC12447747:
No constants are given. Whether binding was seen depends on the method and setting. Binding seen in cells or lysates may run through a third protein. Some results given as binding are weak or reduced against the parent protein; the word gives no strength.

The chains behind the UniProt entries cited, without tags or fusion partners.
UniProt Q99081: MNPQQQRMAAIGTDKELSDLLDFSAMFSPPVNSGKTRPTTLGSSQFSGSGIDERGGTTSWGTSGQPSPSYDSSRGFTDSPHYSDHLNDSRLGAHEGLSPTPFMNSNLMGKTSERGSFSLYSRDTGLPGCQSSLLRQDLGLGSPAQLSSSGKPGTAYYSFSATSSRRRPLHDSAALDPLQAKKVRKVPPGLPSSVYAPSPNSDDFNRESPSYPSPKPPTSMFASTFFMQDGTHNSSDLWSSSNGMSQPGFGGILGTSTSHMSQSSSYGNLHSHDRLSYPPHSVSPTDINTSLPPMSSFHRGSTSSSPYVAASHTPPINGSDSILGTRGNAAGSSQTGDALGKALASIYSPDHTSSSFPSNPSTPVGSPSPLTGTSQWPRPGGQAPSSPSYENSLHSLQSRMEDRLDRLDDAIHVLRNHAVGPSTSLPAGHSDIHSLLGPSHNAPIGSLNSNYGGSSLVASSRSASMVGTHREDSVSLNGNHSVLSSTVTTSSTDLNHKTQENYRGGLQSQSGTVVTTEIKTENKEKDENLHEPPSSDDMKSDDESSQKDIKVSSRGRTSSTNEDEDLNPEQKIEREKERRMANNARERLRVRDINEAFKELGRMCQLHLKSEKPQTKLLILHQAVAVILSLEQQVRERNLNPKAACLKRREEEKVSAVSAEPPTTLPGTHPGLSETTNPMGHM
UniProt Q16665: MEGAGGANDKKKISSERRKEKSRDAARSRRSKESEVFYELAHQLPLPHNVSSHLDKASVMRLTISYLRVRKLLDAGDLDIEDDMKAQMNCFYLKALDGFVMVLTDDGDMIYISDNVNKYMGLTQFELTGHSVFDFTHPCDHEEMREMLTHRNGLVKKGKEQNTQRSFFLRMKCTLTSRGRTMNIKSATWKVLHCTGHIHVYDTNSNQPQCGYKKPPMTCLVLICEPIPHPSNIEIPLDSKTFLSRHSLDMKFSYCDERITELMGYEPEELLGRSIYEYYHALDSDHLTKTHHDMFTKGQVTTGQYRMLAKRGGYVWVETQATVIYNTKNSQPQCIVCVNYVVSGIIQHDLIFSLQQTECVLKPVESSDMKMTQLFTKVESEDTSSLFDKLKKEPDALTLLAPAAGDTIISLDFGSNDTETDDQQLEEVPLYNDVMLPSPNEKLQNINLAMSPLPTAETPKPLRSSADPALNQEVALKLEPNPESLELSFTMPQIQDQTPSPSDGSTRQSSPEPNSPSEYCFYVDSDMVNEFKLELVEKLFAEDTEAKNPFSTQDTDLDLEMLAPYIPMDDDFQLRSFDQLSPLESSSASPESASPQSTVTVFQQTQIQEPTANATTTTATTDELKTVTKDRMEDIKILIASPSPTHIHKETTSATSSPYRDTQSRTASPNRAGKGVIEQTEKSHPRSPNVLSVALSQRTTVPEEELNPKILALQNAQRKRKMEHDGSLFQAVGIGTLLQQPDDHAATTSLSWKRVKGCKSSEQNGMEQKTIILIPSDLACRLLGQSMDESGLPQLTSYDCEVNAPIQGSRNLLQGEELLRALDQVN

Target: Transcription factor 12 (TCF12) (human (endogenous in ECDHCC-1)) (UniProt Q99081)
Assay: co-IP; ECDHCC-1 cell lysate; antibody with protein A/G magnetic beads, rotated at 4 °C overnight; IgG group as control; washed three times with IP lysis buffer; Western blot detection

binding: binds
Substance: hypoxia-inducible factor 1-alpha (HIF-1α) (from UniProt Q16665 1-826)
